This series in a line: general procedure: Fmoc solid-phase peptide synthesis. The following applies: for isolated yield: whole synthesis; for step yield: coupling step.

Consider dNBS-Gly-Val-Thr-Ser-Ala-OH, for which the isolated yield is 62%.
Still for that read-out and setting: the result for dNBS-Val-Thr-Ser-Ala-OH reads 77%.
As for “N-Fmoc-His-Gly-Val-(Ac3-Tn-α-Thr)-Ser-Ala-OH”, the step yield is 71%.
Substance “dNBS-His-Gly-Val-(Ac3-Tn-α-Thr)-Ser-Ala-OH” returned an isolated yield of 56%.
For dNBS-Gly-Val-(Ac3-Tn-α-Thr)-Ser-Ala-OH, the isolated yield was determined as 49% (run 1) and 48% (run 2).
Substance “Fmoc-Pro-Ala-His-Gly-Val-(Ac3-Tn-α-Thr)-Ser-Ala-OH” yielded a step yield of 67%.

The values above are taken from patent publication US8895696 (dated 2014).
